Experimental data from the supplement of paper PMC10331698.
± gives the standard deviation of the averaged measurements. Most values lie at the level of the controls, where differences are scatter.

Assays:
Experiment in all cases: level (log10 ratio to DMSO vehicle control); higher = higher biomarker level / cell amount than vehicle control
Hexafluoroamylene glycol = compound: OCC(F)(F)C(F)(F)C(F)(F)CO [Hexafluoroamylene glycol]; conditions: 2200 nM; in DMSO
Procedure: (§1)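 BioMAP Diversity Plus panel of 12 human primary cell co-culture systems (3C, 4H, LPS, SAg, BT, BF4T, BE3C, CASM3C, HDF3CGF, KF3CT, MyoF, Mphg). Compounds were added 1 h before stimulation and left for 24 h (MyoF 48 h; BT 72 h for soluble read-outs or 6 d for IgG). Biomarkers were read by ELISA, cytotoxicity by SRB, PBMC viability and proliferation by Alamar Blue. Each well value was divided by the mean of 8 DMSO control wells on the same plate and log10 transformed; duplicate blinded samples were tested at 4 concentrations.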

[1] = compound: O=C(Cl)C(F)(F)C(F)(F)C(F)(F)C(=O)Cl [Hexafluoroglutaryl chloride]; conditions: 2200 nM; in DMSO
Procedure: as §1

[2] = compound: FC(F)(F)C(F)(C(F)(F)F)C(F)(F)C(F)(F)CC1CO1 [3-(Perfluoro-3-methylbutyl)-1,2-propenoxide]; conditions: in DMSO
Procedure: as §1

[3] = compound: OCCCC(F)(F)C(F)(F)C(F)(F)C(F)(F)C(F)(F)C(F)(F)C(F)(F)F [7:3 Fluorotelomer alcohol]; conditions: 2200 nM; in DMSO
Procedure: as §1

[4] = compound: O=S(=O)(O)CCC(F)(F)C(F)(F)C(F)(F)C(F)(F)F [4:2 Fluorotelomer sulfonic acid]; conditions: 2200 nM; in DMSO
Procedure: as §1

[5] = compound: C=CC(=O)OCCC(F)(F)C(F)(F)C(F)(F)C(F)(F)C(F)(F)C(F)(F)C(F)(F)C(F)(F)F [8:2 Fluorotelomer acrylate]; conditions: 2200 nM; in DMSO
Procedure: as §1

[6] = compound: C=CC(=O)OCC(F)(F)C(F)(F)C(F)(F)COC(=O)C=C [1H,1H,5H,5H-Perfluoro-1,5-pentanediol diacrylate]; conditions: 2200 nM; in DMSO
Procedure: as §1

[7] = compound: O=C(O)C=C(C(F)(F)F)C(F)(F)F [3,3-Bis(trifluoromethyl)-2-propenoic acid]; conditions: in DMSO
Procedure: as §1

Perfluoro-1-iodohexane = compound: FC(F)(F)C(F)(F)C(F)(F)C(F)(F)C(F)(F)C(F)(F)I [Perfluoro-1-iodohexane]; conditions: in DMSO
Procedure: as §1

[8] = compound: FC(F)(I)C(F)(F)C(F)(F)C(F)(F)C(F)(F)C(F)(F)I [1,6-Diiodoperfluorohexane]; conditions: 2200 nM; in DMSO
Procedure: as §1

[9] = compound: O=S(=O)(O)C(F)(F)C(F)(F)C(F)(F)C(F)(F)C(F)(F)C(F)(F)F [Perfluorohexanesulfonic acid]; conditions: 2200 nM; in DMSO
Procedure: as §1

[10] = compound: C=CC(=O)OCCC(F)(F)C(F)(F)C(F)(F)C(F)(F)F [2-(Perfluorobutyl)ethyl acrylate]; conditions: 2200 nM; in DMSO
Procedure: as §1

[11] = compound: O=C(O)C(F)(F)C(F)(F)C(F)(F)C(F)(F)C(F)(F)C(F)(F)C(F)(F)C(F)(F)C(F)(F)C(F)(F)C(F)(F)C(F)(F)C(F)(F)F [Perfluorotetradecanoic acid]; conditions: in DMSO
Procedure: as §1

Test System | level (log10) (Hexafluoroamylene glycol) | level (log10) [1] | level (log10) ([2]; 740 nM) | level (log10) ([2]; 2200 nM) | level (log10) [3] | level (log10) [4] | level (log10) [5] | level (log10) [6] | level (log10) ([7]; 2200 nM) | level (log10) ([7]; 6700 nM) | level (log10) ([7]; 20000 nM) | level (log10) ([7]; 60000 nM) | level (log10) (Perfluoro-1-iodohexane; 2200 nM) | level (log10) (Perfluoro-1-iodohexane; 6700 nM) | level (log10) (Perfluoro-1-iodohexane; 20000 nM) | level (log10) (Perfluoro-1-iodohexane; 60000 nM) | level (log10) [8] | level (log10) [9] | level (log10) [10] | level (log10) ([11]; 740 nM) | level (log10) ([11]; 2200 nM)
KF3CT:PAI-I | -0.002 ± 0.0085 | -0.0075 ± 0.023 | 0.015 ± 0.0071 | 0.001 ± 0.024 | -0.013 ± 0.033 | 0.002 ± 0.011 | 0.002 ± 0.0014 | 0.0265 ± 0.011 | 0.018 | 0.004 ± 0.013 | 0.002 ± 0.013 | -0.0055 ± 0.018 | 0.008 ± 0.011 | 0.001 ± 0.0014 | -0.0005 ± 0.005 | 0.0055 ± 0.005 | 0.0025 ± 0.035 | 0.013 ± 0.023 | -0.013 ± 0.024 | 0.0045 ± 0.028 | -0.006 ± 0.021
CASM3C:HLA-DR | -0.0165 ± 0.016 | 0.006 ± 0.025 | -0.008 ± 0.0099 | -0.014 ± 0.0057 | 0.0155 ± 0.012 | 0.0165 ± 0.0035 | 0.003 ± 0.054 | 0.0025 ± 0.005 | -0.0765 ± 0.071 | -0.121 ± 0.0028 | -0.167 ± 0.0085 | -0.181 ± 0.067 | 0.0255 ± 0.019 | 0.0075 ± 0.0092 | 0.004 ± 0.0057 | 0.0095 ± 0.022 | -0.0115 ± 0.025 | 0.007 ± 0.03 | -0.027 ± 0.037 | -0.0055 ± 0.032 | -0.0205 ± 0.018
BF4T:SRB | 0.0195 ± 0.037 | -0.0095 ± 0.019 | -0.004 | -0.002 ± 0.0028 | 0.012 ± 0.0071 | 0.0115 ± 0.016 | -0.0025 ± 0.016 | 0.001 ± 0.0028 | -0.0045 ± 0.00071 | 0.0015 ± 0.005 | -0.006 ± 0.011 | 0.0045 ± 0.0092 | 0.007 ± 0.021 | -0.006 ± 0.0085 | -0.011 ± 0.011 | -0.0135 ± 0.016 | -0.0035 ± 0.0021 | -0.0025 ± 0.011 | -0.003 ± 0.0071 | 0.009 ± 0.021 | 0.0065 ± 0.0021
BF4T:IL-1alpha | 0.0095 ± 0.025 | -0.012 ± 0.037 | 0.0105 ± 0.026 | -0.003 ± 0.0042 | -0.0005 ± 0.005 | 0.002 ± 0.041 | 0.0265 ± 0.015 | 0.0155 ± 0.013 | 0.014 ± 0.02 | -0.009 ± 0.0057 | -0.003 ± 0.0085 | -0.0065 ± 0.035 | -0.004 ± 0.017 | -0.0075 ± 0.005 | -0.0065 ± 0.012 | -0.004 ± 0.0057 | 0.012 ± 0.025 | 0.003 ± 0.023 | 0.0055 ± 0.029 | 0.0045 ± 0.028 | -0.008 ± 0.0057
MyoF:CXCL8/IL-8 | -0.0055 ± 0.005 | -0.0115 ± 0.0092 | 0.008 ± 0.044 | -0.007 ± 0.011 | 0.0125 ± 0.046 | 0.004 ± 0.042 | 0.0115 ± 0.049 | 0.0075 ± 0.0021 | 0.0855 ± 0.0078 | 0.0915 ± 0.00071 | 0.107 ± 0.015 | 0.154 ± 0.016 | 0.015 ± 0.024 | 0.021 ± 0.041 | 0.023 ± 0.041 | 0.0385 ± 0.028 | 0.068 ± 0.016 | 0.0015 ± 0.023 | 0.008 ± 0.0042 | 0.0125 ± 0.025 | 0.0235 ± 0.0064
MyoF:Decorin | -0.0095 ± 0.005 | -0.0085 ± 0.04 | 0.017 ± 0.0099 | 0 ± 0.0057 | 0.043 ± 0.035 | -0.0055 ± 0.011 | -0.0085 ± 0.019 | -0.023 ± 0.0028 | -0.0075 ± 0.0064 | -0.0275 ± 0.0021 | -0.043 ± 0.024 | -0.057 ± 0.045 | 0.016 ± 0.02 | 0.0185 ± 0.011 | 0.023 ± 0.0042 | -0.012 ± 0.044 | 0.005 ± 0.041 | -0.024 ± 0.028 | 0.0145 ± 0.022 | 0.0305 ± 0.023 | 0.034 ± 0.0014
